Earlier results, collected in patent US12612661B2, “Compositions and methods for assessing the efficacy of inhibitors of neurotransmitter transporters” (DENOVO BIOPHARMA LLC, priority 2020, dated 2026).
At least one structure is not confirmed: it was looked up by name or label, or the drawing left a doubt.

Test system: ANK3
Conditions: mouse; cited from earlier work

[Li] [lithium]
effect on reduced anxiety related symptoms and increased light phase activity after ANK3 knockdown: reversed
